The results in this text go back to PMC9629626.

T1: GBPL3-TurboID-3HA (Arabidopsis) (UniProt F4KG14)
T1 sequence: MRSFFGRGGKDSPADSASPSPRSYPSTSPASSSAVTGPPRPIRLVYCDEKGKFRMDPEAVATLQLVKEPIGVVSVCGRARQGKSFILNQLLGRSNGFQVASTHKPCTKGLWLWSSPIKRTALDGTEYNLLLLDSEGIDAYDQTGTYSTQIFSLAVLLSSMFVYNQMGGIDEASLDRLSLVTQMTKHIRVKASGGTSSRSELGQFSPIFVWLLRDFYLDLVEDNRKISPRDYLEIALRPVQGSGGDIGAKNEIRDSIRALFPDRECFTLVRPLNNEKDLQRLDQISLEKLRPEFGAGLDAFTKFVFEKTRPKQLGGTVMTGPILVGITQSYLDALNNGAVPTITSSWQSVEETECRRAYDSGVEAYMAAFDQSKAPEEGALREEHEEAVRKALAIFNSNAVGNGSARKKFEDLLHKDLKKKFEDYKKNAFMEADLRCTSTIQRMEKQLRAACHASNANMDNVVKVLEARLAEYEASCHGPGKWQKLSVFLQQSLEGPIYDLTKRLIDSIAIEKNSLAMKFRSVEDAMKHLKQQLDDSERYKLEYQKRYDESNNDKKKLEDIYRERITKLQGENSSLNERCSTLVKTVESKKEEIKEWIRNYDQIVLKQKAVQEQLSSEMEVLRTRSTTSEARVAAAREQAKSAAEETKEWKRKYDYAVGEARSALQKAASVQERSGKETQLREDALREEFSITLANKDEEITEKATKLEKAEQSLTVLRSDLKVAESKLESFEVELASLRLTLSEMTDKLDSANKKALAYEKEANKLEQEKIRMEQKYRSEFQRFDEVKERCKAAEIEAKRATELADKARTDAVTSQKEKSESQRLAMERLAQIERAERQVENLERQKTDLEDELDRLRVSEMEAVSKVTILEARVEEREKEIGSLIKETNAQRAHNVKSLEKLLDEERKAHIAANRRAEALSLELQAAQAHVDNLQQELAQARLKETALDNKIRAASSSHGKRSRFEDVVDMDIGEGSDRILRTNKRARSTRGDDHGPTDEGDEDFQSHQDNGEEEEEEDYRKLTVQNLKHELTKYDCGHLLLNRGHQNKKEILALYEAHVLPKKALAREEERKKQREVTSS

B1: KAKU4 (protein, UniProt Q949W6 1-485)
chain: MDSVSGYAAGAGQPRVGGKIVRPRRTAVVRTPCERPVQRSRDPPQQNPSWISRLVYKPASVIASGAGKFISSVVFSDSSSSSEEDEDSSSDIDGDEDVEKNNPDFTEEDLLSAQQPSIQRLSSKRVIEQLLLQETFAREEGDRLIDIIKARVVDHPSVPSAIETSHDDYGLTSDVNVGEMSNTAVMEARKWLEEKKSGSSSKYKATEDGAGSPVDVAKSYMRARLPWGSPAANNLDFRSPSSARVQGTPLPYSAGNFSSSKLKRKSGSNQSWNIQDEIRKVRAKATEEMLKSPSSVASLEPKYSPYVLATDMLKGNASSLNADGAVRNEQSRALPNSAIPTSEHNQTTEANQAVKETGVLHTRSRGVGLEETFISTQGVKPSEDTNTAPQSGTAVDDFNDQDGDFIQPTSTIGNTTNAVLALGATLDPTGNSCIPKDVFETSKEADEIGASRHTSNGFPSSSPSGYGRSTKTHTTRRNQGFSAYS
B2: SNW/SKI-… PROTEIN (SKIP) (protein, UniProt O80653 1-613)
chain: MKSLNDLPAPKSTTTTYYDHSNDAWFKNRVTESETVKSSSIKFKVVPAYLNRQGLRPKNPEDFGDGGAFPEIHLPQYPLLMGKNKSNKPGAKTLPVTVDAQGNVVFDAIVRQNENSRKIVYSQHKDIIPKFLKNEGDLGTVVDEEEELQKEIQETAEETKAAIEKIVNVRLSAAQPSNIARQSGDSQYIKYKPSQQSSAFNSGAKERIIRMVEMPVDPLDPPKFKHKRVPRASGSPPVPVMHSPPRPVTVKDQQDWKIPPCISNWKNPKGYTIPLDKRLAADGRGLQDVQINDNFAKLSEALYVAEQKAREAVSMRSKVQKEMVMKDKERKEQELRALAQKARSERTGAAMSMPVSSDRGRSESVDPRGDYDNYDQDRGREREREEPQETREEREKRIQREKIREERRRERERERRLDAKDAAMGKKSKITRDRDRDISEKVALGMASTGGKGGGEVMYDQRLFNQDKGMDSGFAADDQYNLYDKGLFTAQPTLSTLYKPKKDNDEEMYGNADEQLDKIKNTERFKPDKAFTGASERVGSKRDRPVEFEKEEEQDPFGLEKWVSDLKKGKKPLDKIGSGGTMRASGGGGSSSRDDDHGGSGRTKINFERSDRR
B3: F OLIGOURIDYLATE BINDING PROTEIN 1C (UBP1C) (protein, UniProt Q9LJH8 1-427)
chain: MQNPRLKQHQQQQQQQAMMQQQALMQQHSLYHPGVLAPPQLEPVPSGNLPPGFDPSTCRSVYVGNIHTQVTEPLLQEIFTSTGPVESSKLIRKDKSSYGFVHYFDRRSAALAILSLNGRHLFGQPIKVNWAYATGQREDTSSHFNIFVGDLSPEVTDATLYQSFSVFSSCSDARVMWDQKTGRSRGFGFVSFRNQQDAQTAINEMNGKWLSSRQIRCNWATKGATSGDDKLSSDGKSVVELTTGSSEDGKETLNEETPENNSQFTTVYVGNLAPEVTQLDLHRYFHALGAGVIEEVRVQRDKGFGFVRYNTHPEAALAIQMGNTQPYLFNRQIKCSWGNKPTPPGTASNPLPPPAPAPVPGLSAADLLNYERQLALSKMASVNALMHQQGQHPLRQAHGINAAGATAAMYDGGFQNVAAAQQLMYYQ
B4: CRWN4 (protein, UniProt Q9FLH0 1-1010)
chain: MATSSRSERFPITPSTAATNRLTITPNSRVLKSPLTEEIMWKRLKDAGFDEQSIKNRDKAALIAYIAKLESEVYDYQHNMGLLLLEKNELSSQYEEIKASVDESDLTHMREKSAYVSALAEAKKREESLKKDVGIAKECISSLEKTLHEMRAECAETKVSAGSTMSEAHVMIEDALKKLADAEAKMRAAEALQAEANRYHRIAERKLKEVESREDDLTRRLASFKSECETKENEMVIERQTLNERRKSLQQEHERLLDAQVSLNQREDHIFARSQELAELEKGLDTAKTTFEEERKAFEDKKSNLEIALALCAKREEAVSERESSLLKKEQELLVAEEKIASKESELIQNVLANQEVILRKRKSDVEAELECKSKSVEVEIESKRRAWELREVDIKQREDLVGEKEHDLEVQSRALAEKEKDITEKSFNLDEKEKNLVATEEDINRKTTMLEDEKERLRKLDLELQQSLTSLEDKRKRVDSATQKLEALKSETSELSTLEMKLKEELDDLRAQKLEMLAEADRLKVEKAKFEAEWEHIDVKREELRKEAEYITRQREAFSMYLKDERDNIKEERDALRNQHKNDVESLNREREEFMNKMVEEHSEWLSKIQRERADFLLGIEMQKRELEYCIENKREELENSSRDREKAFEQEKKLEEERIQSLKEMAEKELEHVQVELKRLDAERLEIKLDRERREREWAELKDSVEELKVQREKLETQRHMLRAERDEIRHEIEELKKLENLKVALDDMSMAKMQLSNLERSWEKVSALKQKVVSRDDELDLQNGVSTVSNSEDGYNSSMERQNGLTPSSATPFSWIKRCTNLIFKTSPEKSTLMHHYEEEGGVPSEKLKLESSRREEKAYTEGLSIAVERLEAGRKRRGNTSGDETSEPSNNKKRKHDVTQKYSDEADTQSVISSPQNVPEDKHELPSSQTQTPSGMVVISETVKITRVTCETEVTNKVTTLDCSESPSEAGRKMGEETEDGDCNQTGINASETVIHNEAATEDICT
B5: CRWN2 (protein, UniProt Q9SAF6 1-1128)
chain: MTPRSETHKIGGVTNPRNADRKGKAVAFSDDLVIPTLPPPPIGTLTGQGVSRGHTDDMDMGDWRRFREVGLLNEASMEKKDQEALLEKISTLEKELYGYQHNMGLLLMENKELVSKHEQLNQAFQEAQEILKREQSSHLYALTTVEQREENLRKALGLEKQCVQELEKALREIQEENSKIRLSSEAKLVEANALVASVNGRSSDVENKIYSAESKLAEATRKSSELKLRLKEVETRESVLQQERLSFTKERESYEGTFQKQREYLNEWEKKLQGKEESITEQKRNLNQREEKVNEIEKKLKLKEKELEEWNRKVDLSMSKSKETEEDITKRLEELTTKEKEAHTLQITLLAKENELRAFEEKLIAREGTEIQKLIDDQKEVLGSKMLEFELECEEIRKSLDKELQRKIEELERQKVEIDHSEEKLEKRNQAMNKKFDRVNEKEMDLEAKLKTIKEREKIIQAEEKRLSLEKQQLLSDKESLEDLQQEIEKIRAEMTKKEEMIEEECKSLEIKKEEREEYLRLQSELKSQIEKSRVHEEFLSKEVENLKQEKERFEKEWEILDEKQAVYNKERIRISEEKEKFERFQLLEGERLKKEESALRVQIMQELDDIRLQRESFEANMEHERSALQEKVKLEQSKVIDDLEMMRRNLEIELQERKEQDEKDLLDRMAQFEDKRMAELSDINHQKQALNREMEEMMSKRSALQKESEEIAKHKDKLKEQQVEMHNDISELSTLSINLKKRREVFGRERSRFLAFVQKLKDCGSCGQLVNDFVLSDLQLPSNDEVAILPPIGVLNDLPGSSNASDSCNIKKSLDGDASGSGGSRRPSMSILQKCTSIIFSPSKRVEHGIDTGKPEQRLSSSVAVGMETKGEKPLPVDLRLRPSSSSIPEEDEEYTDSRVQETSEGSQLSEFQSSRRGRGRPRKAKPALNPTSSVKHASLEESSKDELSGHVSVTSKKTTGGGGRKRQHIDDTATGGKRRRQQTVAVLPQTPGQRHYNLRRKKTVDQVPADVEDNAAAGEDDADIAASAPSKDTVEETVVETLRARRIETNADVVSAENNGDVPVANVEPTVNEDTNEDGDEEEDEAQDDDNEENQDDDDDDDGDDDGSPRPGEGSIRKKLWTFLTT
B6: Nup50a (protein, UniProt Q9C829 1-440)
chain: MGDSENVQQPSKKRGALKQLSRDNPGLDDDDDSAELESGTFKKASDEVLASRRIVRVKRKEPSAAPVAASNPFAGIQLVPTTAPASTPVGTNAPLAESKLAPAEAVVEDNQKASDIEEGDEVDSKKVDVKDAVGEETEKTKDKDDNHCGKSADVQVAATEVAQMVSCDTNVCNNAVEGTDQTDFPLEKDSGGDQAEKKEKEGNGIEEADKNGDNGAFSSFQQHSSNKNAFTGLASTEASGSSFSFGLVSQDGSTGTGSLFGFGLPSSNSSSIFGATGSSIIKKSEGSGFPPKQEVSTETGEENEKVAFSADSIMFEYLDGGWKERGKGELKVNVSSNDGKARLVMRAKGNYRLILNASLYPEMKLANMDKKGITFACVNSVSEGKEGLSTFALKFKDPTIVEEFRVAIDKHKDSKPMEKAAEKSALPLKTPENSPTATDT

These are yes or no findings as the source states them, for the method shown. Binding seen in cells or lysates may run through a third protein. A yes stands for co-enrichment or nearness to the bait. Other partners may have been found.

The target of this assay is T1, GBPL3-TurboID-3HA (Arabidopsis). Kind of assay: proximity labelling; GBPL3-TurboID-3HA (native promoter) as bait in 1-week-old Arabidopsis seedlings, 50 uM biotin 4 h at room temperature; biotinylated proteins on streptavidin beads; label-free quantitative mass spectrometry; cutoffs fold-change > 4, p < 0.01 against wild-type non-transformants; 2 biological replicates.
With B1, the binding entry was “binds”.

Regarding B2, the binding entry is “binds”. The same measure for B3: “binds”; for B4: “binds”.

Take B5: the binding entry is on record as “binds”. The entry for B6 is “binds”.
